{"source": "PubChem BioAssay AID504786 (Drosophila RNAi Screening Center, 2011)", "screen": "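Knock-downs reducing HIF reporter induction by the iron chelator DFO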 (primary screen)", "cell system": "Drosophila S2 cells with a stable HIF luciferase reporter", "reagents": "long dsRNA against Drosophila genes, about 0.2 µg dsRNA per well of a 384-well plate", "time to read-out": "three days of knock-down, then 20 h of DFO before reading", "conditions": "desferrioxamine (DFO) at 100 µM, an iron chelator that mimics hypoxia, for 20 h", "measured": "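HIF reporter luminescence in cells given 100 µM DFO for 20 h, using the mouse ldh-a hypoxia-response element, scored as per-plate z-scores; higher means greater loss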", "direction": "z-score: higher = stronger loss of HIF reporter signal", "note": "The screen tested about 21,000 reagents; below is an unselected part of those that have a named target and a result. 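Primary screen; positive scores mean lost reporter signal, so the sign may be inverted from the usual convention.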 Further read-outs or replicates are left out here."}
{"predicted target":"metro","DRSC id":"DRSC06341","z-score, replicate 1":-0.3}
{"predicted target":"metro","DRSC id":"DRSC06725","z-score, replicate 1":-0.1}
{"predicted target":"Nil","DRSC id":"DRSC15953","z-score, replicate 1":-0.1}
{"predicted target":"Nap1","DRSC id":"DRSC04626","z-score, replicate 1":-0.3}
{"predicted target":"Cpr50Cb","DRSC id":"DRSC06975","z-score, replicate 1":-0.3}

Continued (2 carried over from the part before).
{"predicted target":"Nap1","DRSC id":"DRSC04626","z-score, replicate 1":-0.3}
{"predicted target":"Cpr50Cb","DRSC id":"DRSC06975","z-score, replicate 1":-0.3}
{"predicted target":"CG14321","DRSC id":"DRSC14800","z-score, replicate 1":0}
{"predicted target":"GlcAT-I","DRSC id":"DRSC17307","z-score, replicate 1":0.2}
{"predicted target":"RpS12","DRSC id":"DRSC11270","z-score, replicate 1":8.4}
{"predicted target":"TpnC4","DRSC id":"DRSC04856","z-score, replicate 1":-0.2}
{"predicted target":"retinin","DRSC id":"DRSC09940","z-score, replicate 1":-0.2}
{"predicted target":"Naa15-16","DRSC id":"DRSC19440","z-score, replicate 1":-1.3}
{"predicted target":"CG2641","DRSC id":"DRSC15441","z-score, replicate 1":-0.1}
{"predicted target":"Lcp3","DRSC id":"DRSC07457","z-score, replicate 1":-0.3}
{"predicted target":"CG14300","DRSC id":"DRSC14779","z-score, replicate 1":-1.2}
{"predicted target":"aly","DRSC id":"DRSC08707","z-score, replicate 1":-0.4}
{"predicted target":"Lgr3","DRSC id":"DRSC15704","z-score, replicate 1":-0.2}
{"predicted target":"Lgr3","DRSC id":"DRSC15706","z-score, replicate 1":0.5}
